According to patent publication US11169443B2, “Gap filling composition and pattern forming method using low molecular weight compound” (AZ Electronic Materials (Luxembourg) S.a.r.l., priority 2016, dated 2021):

Legend:
[1] = Evaluation of application property (coatability); design: key: A: uniform coating was formed; B: coating was formed but contained plaque; C: coating was not formed; details: for coatability after dissolution into IPA: 20% in IPA; for coatability after dissolution into IPA / coatability after dissolution into PGME / coatability after dissolution into water: 1000 rpm; for coatability after dissolution into IPA:water = 7:3: 20% in IPA:water = 7:3, 1000 rpm; for coatability after dissolution into PGME: 20% in PGME; for coatability after dissolution into water: 20% in water
[2] = Pattern collapse rate, removal of composition by reduced pressure
[3] = Evaluation of residue (film thickness after application and after bake)
[4] = Evaluation of pattern collapse rate (composition removed by heating); details: relative to water
[5] = 20% in IPA:water = 7:3, heated at 250° C. for 180 seconds
[6] = 20% in IPA, heated at 250° C. for 180 seconds
[7] = 20% in IPA:water = 7:3, after application
[8] = liquid alone, no gap filling compound, not heated, dried by spin dry

| Molecule | coatability after dissolution into IPA [1] | coatability after dissolution into IPA:water = 7:3 [1] | coatability after dissolution into PGME [1] | coatability after dissolution into water [1] | post-bake thickness of residual film 110° C./60 s ([3]; 20% in PGME) [μm] | post-bake thickness of residual film 130° C./60 s ([3]; 20% in PGME) [μm] | film thickness ([3]; 20% in PGME, after application) [μm] | pattern collapse rate [4, 5] [%] | pattern collapse rate [4, 6] [%] | post-bake thickness of residual film 110° C./60 s ([3]; 20% in IPA) [μm] | post-bake thickness of residual film 130° C./60 s ([3]; 20% in IPA) [μm] | film thickness ([3]; 20% in IPA, after application) [μm] | post-bake thickness of residual film 110° C./60 s ([3]; 20% in IPA:water = 7:3) [μm] | post-bake thickness of residual film 130° C./60 s ([3]; 20% in IPA:water = 7:3) [μm] | film thickness [3, 7] [μm] | other results |
| --- | --- | --- | --- | --- | --- | --- | --- | --- | --- | --- | --- | --- | --- | --- | --- | --- |
| OCCCCC(O)CO (stereo not drawn) [1,2,6-hexanetriol] | B | A | A | C | 0.3 | 0 | 1.2 | – | – | – | – | – | – | – | – | pattern collapse rate ([2]; 22% in PGME, reduced pressure 3.5 kPa/306 s): 0% |
| CCC(O)CO (stereo not drawn) [1,2-butanediol] | A | A | A | C | 0 | 0 | 1.2 | 4 | 7 | 0 | 0 | 1.2 | 0 | 0 | 1.2 | – |
| OC1CCCCC1O (stereo not drawn) [1,2-cyclohexanediol] | B | A | B | C | 0 | 0 | 1.2 | – | – | – | – | – | – | – | – | pattern collapse rate ([2]; 22% in PGMEA, reduced pressure 1.6 kPa/303 s): 0% |
| CCCCC(O)CO (stereo not drawn) [1,2-hexanediol] | A | A | A | C | 0 | 0 | 1.2 | 5 | 4 | 0 | 0 | 1.2 | 0 | 0 | 1.2 | – |
| CCCC(O)CO (stereo not drawn) [1,2-pentanediol] | A | A | A | C | 0 | 0 | 1.2 | 6 | 4 | 0 | 0 | 1.2 | 0 | 0 | 1.2 | – |
| OC1CC(O)CC(O)C1 (stereo not drawn) [1,3,5-cyclohexanetriol] | B | A | A | C | 0.5 | 0 | 1.2 | – | – | – | – | – | – | – | – | pattern collapse rate ([2]; 21% in IPA, reduced pressure 2.8 kPa/307 s): 0% |
| CC(O)CCO (stereo not drawn) [1,3-butanediol] | A | A | A | C | 0 | 0 | 1.2 | 5 | 5 | 0 | 0 | 1.2 | 0 | 0 | 1.2 | coatability ([1]; 20% in IPA:water = 0:1): C; coatability ([1]; 20% in IPA:water = 1:0): A; coatability ([1]; 20% in IPA:water = 1:1): C; coatability ([1]; 20% in IPA:water = 1:3): C; coatability ([1]; 20% in IPA:water = 3:1): A; film thickness ([3]; 20% in IPA:water = 1:0): 1.3 μm; film thickness ([3]; 20% in IPA:water = 3:1): 1.4 μm |
| OC1CCCC(O)C1 (stereo not drawn) [1,3-cyclohexanediol] | B | A | B | C | 0 | 0 | 1.3 | – | – | – | – | – | – | – | – | pattern collapse rate ([2]; 24% in IPA, reduced pressure 0.8 kPa/304 s): 0% |
| OC1CCC(O)C1 (stereo not drawn) [1,3-cyclopentanediol] | B | A | B | C | 0 | 0 | 1.2 | – | – | – | – | – | – | – | – | – |
| CCC(O)CCO (stereo not drawn) [1,3-pentanediol] | A | A | A | C | 0 | 0 | 1.3 | 4 | 5 | 0 | 0 | 1.3 | 0 | 0 | 1.3 | – |
| CC(C)(O)CC(C)(C)O [2,4-dimethyl-2,4-pentanediol] | A | A | A | C | 0 | 0 | 1.2 | – | – | – | – | – | – | – | – | – |
| CC(O)CC(C)O (stereo not drawn) [2,4-pentanediol] | A | A | A | C | 0 | 0 | 1.2 | 5 | 3 | 0 | 0 | 1.2 | 0 | 0 | 1.2 | – |
| CC(CCO)CCO [3-methyl-1,5-pentanediol] | A | A | A | C | 0 | 0 | 1.2 | – | – | – | – | – | – | – | – | – |
| Cc1ccc(O)c(O)c1 [4-methylcatechol] | A | A | A | A | 0.5 | 0 | 1.2 | – | – | – | – | – | – | – | – | – |
| CC(C)O [IPA, isopropyl alcohol, reference compound] | – | – | – | – | – | – | – | – | – | – | – | – | – | – | – | pattern collapse rate [4, 8]: 90% |
| water [reference compound] | – | – | – | – | – | – | – | – | – | – | – | – | – | – | – | pattern collapse rate [4, 8]: 100% |
